Measured values from PMC3741289.
Results are given in words; binding and its absence hold for the method and conditions named. For some of these results: Binding seen in cells or lysates may run through a third protein. Some binding calls cover weakened binding; strength is not graded here. One block for each substance: values may come before it.

Chains of the proteins cited; added tags and fusions are not shown.
UniProt P04792: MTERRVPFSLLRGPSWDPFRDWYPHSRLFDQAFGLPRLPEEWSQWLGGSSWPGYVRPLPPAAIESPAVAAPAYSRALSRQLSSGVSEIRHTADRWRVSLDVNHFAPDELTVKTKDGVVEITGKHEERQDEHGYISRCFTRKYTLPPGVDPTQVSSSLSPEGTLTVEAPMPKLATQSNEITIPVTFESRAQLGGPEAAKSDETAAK

Legend:
[1] = target: T1, R120G mutant HspB5 (αB-crystallin) (human) (UniProt P02511); assay: co-IP; pooled gel filtration fractions (pool I of WT cells, pool II of R120G cells) with anti-HspB1 or anti-HspB5 antibody, 4 h at 4°C, protein G sepharose; washes in IPP150 (20 mM Tris-HCl pH 8, 150 mM NaCl, 0.05% NP-40); immunoblot of total, precipitate and depleted supernatant
T1 sequence: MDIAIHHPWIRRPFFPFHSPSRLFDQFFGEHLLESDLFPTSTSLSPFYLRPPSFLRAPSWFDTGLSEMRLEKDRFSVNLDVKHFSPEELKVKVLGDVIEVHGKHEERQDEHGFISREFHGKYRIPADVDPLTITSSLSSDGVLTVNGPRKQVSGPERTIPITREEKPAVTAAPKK

[2] = target: T2, R120G mutant HspB5 phosphorylated at serine 19 (human) (UniProt P02511); assay: SEC; cells treated for 2 h with 60 µM menadione before lysis; 10,000×g supernatant on Sepharose 6B in TEM buffer; fractions immunoblotted
T2 sequence (chain, phosphoserine at 19): T1 sequence

[3] = target: T1, R120G mutant HspB5 (αB-crystallin) (human); assay: as above
[4] = target: T3, R120G mutant HspB5 phosphorylated at serine 45 (human) (UniProt P02511); assay: as above
T3 sequence (chain, phosphoserine at 45): T1 sequence

[5] = target: T4, R120G mutant HspB5 phosphorylated at serine 59 (human) (UniProt P02511); assay: as above
T4 sequence (chain, phosphoserine at 59): T1 sequence

[6] = target: T2, R120G mutant HspB5 phosphorylated at serine 19 (human); assay: SEC; untreated Neo, WT or R120G HeLa cells lysed in TEM buffer with 0.1% Triton X-100; 10,000×g supernatant on a Sepharose 6B column (1×100 cm) in TEM buffer (20 mM Tris-HCl pH 7.4, 20 mM NaCl, 5 mM MgCl2, 0.1 mM EDTA); pooled fractions immunoblotted
[7] = target: T1, R120G mutant HspB5 (αB-crystallin) (human); assay: as above
[8] = target: T3, R120G mutant HspB5 phosphorylated at serine 45 (human); assay: as above
[9] = target: T4, R120G mutant HspB5 phosphorylated at serine 59 (human); assay: as above
[10] = target: T1, R120G mutant HspB5 (αB-crystallin) (human); assay: SEC; cells treated with hydrogen peroxide; data not shown

binding [1]: binds | binding [2]: binds weakly | binding [3]: binds weakly | binding [4]: binds weakly | binding [5]: binds weakly | binding [6]: binds | binding [7]: binds | binding [8]: binds | binding [9]: binds | binding [10]: binds weakly
Substance: HspB1 (Hsp27) (from UniProt P04792 1-205)

binding [3]: binds weakly
Substance: HspB1 phosphorylated at serine 15 (from UniProt P04792 1-205)

binding [3]: binds weakly
Substance: HspB1 phosphorylated at serine 78 (from UniProt P04792 1-205)

binding [3]: binds weakly
Substance: HspB1 phosphorylated at serine 82 (from UniProt P04792 1-205)
